{"source": "patent US20050171004A1", "about": "“Use of cardiotrophin-1 to promote wound healing and counteract overt fibrosis” (priority 2003, published 2005)", "key": {"[1]": {"system": "other kinases", "conditions": "when used at 1 μM; cited from earlier work"}, "[2]": {"system": "cardiac fibroblasts", "assay": "Western analysis of phosphorylation of translational regulatory proteins", "format": "cell-based, rat", "conditions": "co-incubation with inhibitor", "method": "Protein concentrations of tissue and cell lysates were determined by the BCA method (Smith et al., 1985, Anal Biochem 150: 76-85). Proteins were separated by 8-12% SDS-PAGE and transferred to PVDF membrane (Roche, Indianapolis, Ind.) for 1 hour at 300 mA for small proteins or for 2 hours at 500 mA for proteins greater than 100 kDa. Membranes were blocked with 5% non-fat skim milk in tris-buffered saline containing 0.2% Tween 20 (TBST). Proteins were visualized with ECL Plus (Amersham) after probing with primary and secondary antibodies. Band intensity was quantified using a CCD camera imaging densitometer (GS670, Bio-Rad Laboratories (Canada) Ltd. Mississauga, Ontario).\nTo determine the effect of CT-1 on protein synthesis in cardiac fibroblasts we measured incorporation of ^3H-labeled leucine. […] Since the activity of translational regulatory proteins is modified by phosphorylation, we used phospho-specific antibodies to determine if CT-1 directly influenced the activity of these regulatory proteins.\nWe then determined the effect of pharmacologic inhibitors on the activation of this signaling cascade."}, "[3]": {"system": "cardiac fibroblasts", "assay": "Protein synthesis assay (3H-leucine incorporation)", "format": "cell-based, rat", "conditions": "co-incubation with inhibitor, CT-1 10 ng/mL", "method": "Protein synthesis was determined using the methods of Wolf and Neilson (Wolf and Neilson, 1990, Am J Physiol 259: 768-777). 2.5×10^4 cells (counted with a hemacytometer) were loaded into each well of 24-well plates, allowed to attach overnight, then rendered quiescent in serum free DMEM/F12 for 24 hours. Cells were stimulated with CT-1 for an additional 24 hours in the presence of 2 μCi/mL ^3H-leucine with or without inhibitors of signaling pathways. The culture media was aspirated, cells rinsed twice with phosphate buffered saline and proteins precipitated by two incubations with 10% TCA at room temperature. The precipitated protein was solubilized in 300 μl lysis buffer containing 0.5 M NaOH and 1% Triton X-100 at room temperature for 15 minutes. The lysate was transferred to scintillation vials, and beta emission was determined with 3 ml Ecolume scintillation fluid (ICN Pharmaceuticals) and a scintillation counter (LS6500, Beckman Coulter, Fullerton, Calif.)."}, "[4]": {"system": "casein kinase 2", "conditions": "cited from earlier work"}}, "note": "At least one structure is not confirmed: it was looked up by name or label, or the drawing left a doubt.", "data": [{"smiles": "CO[C@H]1C[C@@H]2CC[C@@H](C)[C@@](O)(O2)C(=O)C(=O)N2CCCC[C@H]2C(=O)O[C@H]([C@H](C)C[C@@H]2CC[C@@H](O)[C@H](OC)C2)CC(=O)[C@H](C)/C=C(\\C)[C@@H](O)[C@@H](OC)C(=O)[C@H](C)C[C@H](C)/C=C/C=C/C=C/1C", "note": "[Rapamycin]", "values": [{"measurement": "inhibition of other kinases", "setting": "[1]", "value": "does not inhibit other kinases"}, {"measurement": "effect on 4E-BPI phosphorylation", "setting": "[2]", "value": "lesser effect"}, {"measurement": "effect on basal and CT-1 induced phosphorylation of p70 S6 kinase and S6 ribosomal protein", "setting": "[2]", "value": "decreased"}, {"measurement": "effect on CT-1 induced protein synthesis (3H-leucine uptake)", "setting": "[3]", "value": "suppressed"}]}, {"smiles": "O=c1cc(N2CCOCC2)oc2c(-c3ccccc3)cccc12", "note": "[LY294002]", "values": [{"measurement": "effect on activation of ERK 1/2 and p38 MAPK", "setting": "[2]", "value": "attenuated"}, {"measurement": "effect on basal and CT-1 induced phosphorylation of Akt, mTOR, p70 S6 kinase, Mnk1, eIF4E, 4E-BP1 and S6 ribosomal protein", "setting": "[2]", "value": "suppressed"}, {"measurement": "inhibition of casein kinase 2 relative to P13K", "setting": "[4]", "value": "equal efficacy"}, {"measurement": "effect on CT-1 induced protein synthesis (3H-leucine uptake)", "setting": "[3]", "value": "suppressed"}]}]}
